The source of these data is the supplement of paper PMC10849652.

By UniProt entry, the sequences of proteins in these tests, tags left out. Where a name states a change or a piece, a line headed by the entry shows the natural chain unless it says otherwise.
UniProt Q14766: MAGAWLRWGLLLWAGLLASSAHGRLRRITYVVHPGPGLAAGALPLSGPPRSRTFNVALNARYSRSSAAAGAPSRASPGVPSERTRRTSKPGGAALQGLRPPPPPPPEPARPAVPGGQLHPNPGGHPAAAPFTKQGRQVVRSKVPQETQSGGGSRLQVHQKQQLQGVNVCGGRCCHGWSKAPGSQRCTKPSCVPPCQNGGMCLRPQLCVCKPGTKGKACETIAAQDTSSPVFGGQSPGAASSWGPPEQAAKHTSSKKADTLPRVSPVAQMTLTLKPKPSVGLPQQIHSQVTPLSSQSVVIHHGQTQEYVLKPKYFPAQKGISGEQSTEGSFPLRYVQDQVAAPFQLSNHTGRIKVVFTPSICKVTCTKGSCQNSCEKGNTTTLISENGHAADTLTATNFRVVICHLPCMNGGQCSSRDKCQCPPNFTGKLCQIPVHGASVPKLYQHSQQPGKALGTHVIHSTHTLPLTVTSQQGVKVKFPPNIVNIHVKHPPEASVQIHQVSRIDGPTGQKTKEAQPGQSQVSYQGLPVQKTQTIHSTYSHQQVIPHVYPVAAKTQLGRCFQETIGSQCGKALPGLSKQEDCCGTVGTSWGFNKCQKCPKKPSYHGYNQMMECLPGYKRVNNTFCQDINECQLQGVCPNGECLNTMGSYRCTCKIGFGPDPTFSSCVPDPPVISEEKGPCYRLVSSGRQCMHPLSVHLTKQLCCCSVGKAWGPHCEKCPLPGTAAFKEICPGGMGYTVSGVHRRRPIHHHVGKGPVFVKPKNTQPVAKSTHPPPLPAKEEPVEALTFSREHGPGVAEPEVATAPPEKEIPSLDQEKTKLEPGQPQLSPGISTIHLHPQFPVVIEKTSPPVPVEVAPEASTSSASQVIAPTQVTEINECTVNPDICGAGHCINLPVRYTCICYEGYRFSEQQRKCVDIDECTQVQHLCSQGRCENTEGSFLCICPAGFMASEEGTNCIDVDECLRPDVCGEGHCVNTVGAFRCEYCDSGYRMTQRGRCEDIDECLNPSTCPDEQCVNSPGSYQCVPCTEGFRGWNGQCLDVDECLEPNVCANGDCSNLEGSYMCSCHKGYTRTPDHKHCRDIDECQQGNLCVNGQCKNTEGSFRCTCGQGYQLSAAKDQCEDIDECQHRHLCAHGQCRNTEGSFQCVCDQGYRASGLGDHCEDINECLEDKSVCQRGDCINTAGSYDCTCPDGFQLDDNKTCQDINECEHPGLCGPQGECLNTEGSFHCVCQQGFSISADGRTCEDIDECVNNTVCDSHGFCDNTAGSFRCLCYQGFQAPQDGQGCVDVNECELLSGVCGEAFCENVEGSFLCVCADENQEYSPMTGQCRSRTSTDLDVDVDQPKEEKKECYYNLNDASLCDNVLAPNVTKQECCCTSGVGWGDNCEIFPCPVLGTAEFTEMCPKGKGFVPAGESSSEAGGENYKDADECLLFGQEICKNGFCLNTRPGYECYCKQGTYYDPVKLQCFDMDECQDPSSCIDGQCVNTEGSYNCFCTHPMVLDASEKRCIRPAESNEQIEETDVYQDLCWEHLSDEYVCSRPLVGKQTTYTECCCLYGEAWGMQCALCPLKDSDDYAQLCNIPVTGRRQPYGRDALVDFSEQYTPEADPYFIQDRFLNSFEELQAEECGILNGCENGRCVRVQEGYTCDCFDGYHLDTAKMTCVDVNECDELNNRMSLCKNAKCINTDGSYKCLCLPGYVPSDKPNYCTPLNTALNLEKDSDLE
UniProt Q15759, whole entry, looked up: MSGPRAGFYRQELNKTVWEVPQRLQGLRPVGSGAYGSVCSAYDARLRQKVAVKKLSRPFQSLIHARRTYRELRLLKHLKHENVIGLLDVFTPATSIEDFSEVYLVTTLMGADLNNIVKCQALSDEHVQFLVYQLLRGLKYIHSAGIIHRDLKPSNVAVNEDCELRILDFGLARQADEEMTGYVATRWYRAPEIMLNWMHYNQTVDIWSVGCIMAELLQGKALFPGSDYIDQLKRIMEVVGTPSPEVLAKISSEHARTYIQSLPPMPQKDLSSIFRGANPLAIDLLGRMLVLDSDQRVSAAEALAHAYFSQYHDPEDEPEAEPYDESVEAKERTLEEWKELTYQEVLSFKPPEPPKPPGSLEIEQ
UniProt Q6P9F7: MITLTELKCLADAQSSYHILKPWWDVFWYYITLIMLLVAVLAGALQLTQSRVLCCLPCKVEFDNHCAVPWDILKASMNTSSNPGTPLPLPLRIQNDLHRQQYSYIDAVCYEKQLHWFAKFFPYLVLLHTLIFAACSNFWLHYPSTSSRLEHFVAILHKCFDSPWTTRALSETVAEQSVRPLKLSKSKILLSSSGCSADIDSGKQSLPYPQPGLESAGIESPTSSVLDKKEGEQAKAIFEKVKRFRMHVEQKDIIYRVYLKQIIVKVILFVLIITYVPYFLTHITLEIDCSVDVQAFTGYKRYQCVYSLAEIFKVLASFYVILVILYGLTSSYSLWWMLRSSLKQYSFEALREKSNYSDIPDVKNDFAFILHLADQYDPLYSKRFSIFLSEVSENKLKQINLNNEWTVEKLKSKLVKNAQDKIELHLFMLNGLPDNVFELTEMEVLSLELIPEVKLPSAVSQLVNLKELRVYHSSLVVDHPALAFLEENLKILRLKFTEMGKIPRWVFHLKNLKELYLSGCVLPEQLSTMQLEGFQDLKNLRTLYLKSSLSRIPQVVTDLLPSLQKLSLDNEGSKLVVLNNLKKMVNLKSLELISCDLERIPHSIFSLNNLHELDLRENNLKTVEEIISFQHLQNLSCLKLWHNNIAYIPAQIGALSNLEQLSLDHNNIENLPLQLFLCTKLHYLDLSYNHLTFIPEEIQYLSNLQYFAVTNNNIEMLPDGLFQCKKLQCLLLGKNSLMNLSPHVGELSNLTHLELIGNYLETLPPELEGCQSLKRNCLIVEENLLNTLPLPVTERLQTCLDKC
UniProt O15525: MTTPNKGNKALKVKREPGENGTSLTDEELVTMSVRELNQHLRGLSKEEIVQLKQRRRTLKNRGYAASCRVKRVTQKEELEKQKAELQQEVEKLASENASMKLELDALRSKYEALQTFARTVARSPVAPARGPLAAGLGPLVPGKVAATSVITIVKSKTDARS
UniProt Q969L4: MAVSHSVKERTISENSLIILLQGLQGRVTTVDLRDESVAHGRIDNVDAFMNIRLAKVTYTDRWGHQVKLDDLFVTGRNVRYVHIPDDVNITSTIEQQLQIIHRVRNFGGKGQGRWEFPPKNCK
UniProt Q9H089: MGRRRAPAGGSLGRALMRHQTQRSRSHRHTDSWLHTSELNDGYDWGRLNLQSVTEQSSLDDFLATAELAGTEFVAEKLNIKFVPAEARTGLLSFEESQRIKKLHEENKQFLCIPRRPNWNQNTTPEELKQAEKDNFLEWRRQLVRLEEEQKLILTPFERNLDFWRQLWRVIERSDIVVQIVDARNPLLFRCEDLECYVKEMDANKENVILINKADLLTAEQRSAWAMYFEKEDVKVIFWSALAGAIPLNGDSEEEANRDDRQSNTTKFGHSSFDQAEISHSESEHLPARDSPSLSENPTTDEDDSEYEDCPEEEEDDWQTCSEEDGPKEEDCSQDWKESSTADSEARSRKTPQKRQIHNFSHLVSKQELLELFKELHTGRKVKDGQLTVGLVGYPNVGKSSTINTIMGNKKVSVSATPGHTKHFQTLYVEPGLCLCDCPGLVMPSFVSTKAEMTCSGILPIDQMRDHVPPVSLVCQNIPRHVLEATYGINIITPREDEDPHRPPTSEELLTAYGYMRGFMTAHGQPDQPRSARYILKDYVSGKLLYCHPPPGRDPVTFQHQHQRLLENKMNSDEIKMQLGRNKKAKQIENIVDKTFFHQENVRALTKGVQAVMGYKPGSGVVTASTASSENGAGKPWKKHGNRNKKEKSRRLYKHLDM
UniProt Q9C099: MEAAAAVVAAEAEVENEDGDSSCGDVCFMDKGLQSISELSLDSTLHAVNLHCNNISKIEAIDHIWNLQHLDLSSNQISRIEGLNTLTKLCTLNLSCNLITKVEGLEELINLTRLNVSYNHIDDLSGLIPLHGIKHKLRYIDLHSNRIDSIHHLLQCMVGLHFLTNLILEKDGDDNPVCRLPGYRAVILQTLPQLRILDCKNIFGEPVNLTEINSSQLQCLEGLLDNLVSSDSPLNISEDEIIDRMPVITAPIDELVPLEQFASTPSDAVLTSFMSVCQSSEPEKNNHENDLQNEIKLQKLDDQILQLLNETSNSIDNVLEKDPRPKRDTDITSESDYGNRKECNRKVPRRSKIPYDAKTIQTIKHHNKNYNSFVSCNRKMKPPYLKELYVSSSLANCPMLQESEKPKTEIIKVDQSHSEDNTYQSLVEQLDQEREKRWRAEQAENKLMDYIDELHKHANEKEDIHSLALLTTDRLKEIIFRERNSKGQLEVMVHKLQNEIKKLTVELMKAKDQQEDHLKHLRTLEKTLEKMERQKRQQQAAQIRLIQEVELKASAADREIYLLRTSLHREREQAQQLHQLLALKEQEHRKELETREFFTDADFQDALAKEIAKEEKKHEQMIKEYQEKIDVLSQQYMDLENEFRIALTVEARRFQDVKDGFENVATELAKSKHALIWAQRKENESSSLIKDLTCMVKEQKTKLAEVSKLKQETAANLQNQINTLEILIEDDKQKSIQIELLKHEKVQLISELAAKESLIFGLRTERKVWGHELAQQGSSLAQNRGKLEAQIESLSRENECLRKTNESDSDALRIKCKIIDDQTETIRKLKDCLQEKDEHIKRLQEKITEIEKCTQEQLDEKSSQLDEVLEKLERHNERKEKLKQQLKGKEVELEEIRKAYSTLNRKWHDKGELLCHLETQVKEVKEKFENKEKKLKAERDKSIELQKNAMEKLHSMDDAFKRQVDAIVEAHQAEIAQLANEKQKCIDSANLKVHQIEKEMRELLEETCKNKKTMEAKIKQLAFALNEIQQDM
UniProt Q9H8J5: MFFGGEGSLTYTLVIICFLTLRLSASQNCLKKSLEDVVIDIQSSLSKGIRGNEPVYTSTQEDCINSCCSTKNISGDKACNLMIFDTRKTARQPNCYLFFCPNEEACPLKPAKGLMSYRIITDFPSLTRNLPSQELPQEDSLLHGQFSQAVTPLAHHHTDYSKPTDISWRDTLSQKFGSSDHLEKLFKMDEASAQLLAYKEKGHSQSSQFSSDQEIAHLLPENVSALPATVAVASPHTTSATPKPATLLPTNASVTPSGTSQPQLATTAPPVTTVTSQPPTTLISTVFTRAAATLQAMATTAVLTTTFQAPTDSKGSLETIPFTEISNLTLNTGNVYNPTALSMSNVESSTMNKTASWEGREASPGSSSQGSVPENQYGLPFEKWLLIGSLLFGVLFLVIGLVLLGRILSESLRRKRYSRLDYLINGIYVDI
UniProt P43355: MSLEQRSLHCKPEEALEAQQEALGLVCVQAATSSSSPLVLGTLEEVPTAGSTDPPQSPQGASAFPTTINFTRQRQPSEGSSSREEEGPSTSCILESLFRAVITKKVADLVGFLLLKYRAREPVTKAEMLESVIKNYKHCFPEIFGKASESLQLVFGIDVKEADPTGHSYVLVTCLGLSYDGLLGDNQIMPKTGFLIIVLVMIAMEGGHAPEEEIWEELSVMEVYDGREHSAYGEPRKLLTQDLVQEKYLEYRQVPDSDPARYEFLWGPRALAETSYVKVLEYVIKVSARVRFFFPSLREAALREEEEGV
UniProt Q13164: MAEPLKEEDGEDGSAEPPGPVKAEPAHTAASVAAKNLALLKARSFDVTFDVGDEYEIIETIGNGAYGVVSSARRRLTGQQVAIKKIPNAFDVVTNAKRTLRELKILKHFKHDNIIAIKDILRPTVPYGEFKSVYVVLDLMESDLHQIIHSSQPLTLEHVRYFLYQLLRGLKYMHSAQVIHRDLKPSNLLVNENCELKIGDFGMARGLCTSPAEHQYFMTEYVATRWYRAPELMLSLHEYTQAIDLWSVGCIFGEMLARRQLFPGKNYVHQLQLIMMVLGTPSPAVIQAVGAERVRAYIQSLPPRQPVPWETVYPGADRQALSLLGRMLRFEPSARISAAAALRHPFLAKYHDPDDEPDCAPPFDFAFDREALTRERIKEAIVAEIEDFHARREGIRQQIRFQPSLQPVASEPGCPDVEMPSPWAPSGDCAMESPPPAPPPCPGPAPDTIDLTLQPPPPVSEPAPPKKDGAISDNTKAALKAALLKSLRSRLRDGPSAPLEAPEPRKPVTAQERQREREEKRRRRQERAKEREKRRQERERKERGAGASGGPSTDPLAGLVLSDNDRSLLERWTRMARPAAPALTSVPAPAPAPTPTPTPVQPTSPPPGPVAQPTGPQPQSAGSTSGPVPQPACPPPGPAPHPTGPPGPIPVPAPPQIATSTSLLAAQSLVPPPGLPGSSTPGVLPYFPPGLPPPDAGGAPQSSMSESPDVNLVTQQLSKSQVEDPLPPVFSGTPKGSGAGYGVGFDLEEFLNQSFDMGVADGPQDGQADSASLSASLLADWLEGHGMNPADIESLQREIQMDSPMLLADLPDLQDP

Some of the results follow.

Holding throughout (assay): log2 fold change, soluble protein after heating vs DMSO (PISA); higher = thermal stabilisation; K562 cells, 10 uM, 30 min; active = over 0.2 and 3.5 SD of the protein, either way, in both replicates (recomputed)
Compound in one assay: CO[C@H]1C[C@@H]2CC[C@@H](C)[C@@](O)(O2)C(=O)C(=O)N2CCCC[C@H]2C(=O)O[C@H]([C@H](C)C[C@@H]2CC[C@H](n3cnnn3)[C@H](OC)C2)CC(=O)[C@H](C)/C=C(\C)[C@@H](O)[C@@H](OC)C(=O)[C@H](C)C[C@H](C)/C=C/C=C/C=C/1C [zotarolimus]
In short, it runs like this:
(§1)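 K562 cells (2×10^6 cells/mL) were treated with 10 μM compound for 30 min, and aliquots were heated for 3 min over 48°C-58°C. Pooled aliquots were extracted in PBS with 0.5% NP-40 at 4°C, and the supernatant after 21,000xg for 90 min was measured by TMTpro 16plex LC-MS/MS with channel sums equalised. Reported thermal stability, relative to control samples and from duplicates, is a log2 fold change.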

Compound in another assay: COc1cc(C(=O)O)ccc1NC(=O)[C@@H]1N[C@@H](CC(C)(C)C)[C@](C#N)(c2ccc(Cl)cc2F)[C@H]1c1cccc(Cl)c1F [idasanutlin]
In short, it runs like this:
as §1

Compound in assay [1]: COc1cc2nc(-c3cc(F)ccc3O)nc(N[C@@H]3CNC[C@H]3C(C)(C)O)c2cc1OC
In short, it runs like this:
as §1

Compound in another assay: COc1cc2ncnc(Nc3ccc(F)c(Cl)c3)c2cc1OCCCN1CCOCC1 [gefitinib]
In short, it runs like this:
as §1

Compound in a further assay: CS(=O)(=O)CCNCc1ccc(-c2ccc3ncnc(Nc4ccc(OCc5cccc(F)c5)c(Cl)c4)c3c2)o1 [lapatinib]
In short, it runs like this: as §1

Compound in another assay: CS(=O)(=O)N1CCN(Cc2cc3nc(-c4cccc5[nH]ncc45)nc(N4CCOCC4)c3s2)CC1 [pictilisib]
In outline: as §1

Compound in assay [2]: C[C@@H]1COCCN1C2=NC(=NC(=C2)C3(CC3)S(=O)(=O)C)C4=C5C=CNC5=CC=C4
In short, it runs like this: as §1

Compound in assay [3]: C[C@H](C1=CC=C(C=C1)C(=O)NC2=C3C=CNC3=NC=C2)N
In outline:
as §1

Compound in a further assay: C[C@H](Nc1ncnc2nc[nH]c12)c1cc2cccc(Cl)c2c(=O)n1-c1ccccc1 [duvelisib]
In short, it runs like this:
as §1

Compound in the next assay: Cc1cc(Nc2cc(CN3CCOCC3)c3nc(C)c(Cc4ccc(Cl)cc4F)n3n2)n[nH]1 [gandotinib]
In short, it runs like this:
as §1

Compound in another assay: Cc1cc(Nc2cc(N3CCN(C)CC3)nc(Sc3ccc(NC(=O)C4CC4)cc3)n2)n[nH]1 [tozasertib]
In short, it runs like this: as §1

Compound in assay [4]: Cc1cc(SCc2sc(-c3ccc(C(F)(F)F)cc3)nc2C)ccc1OCC(=O)O
In short, it runs like this: as §1

Compound in another assay: Cc1ccc(C(=O)N(CCCN)[C@@H](c2nc3cc(Cl)ccc3c(=O)n2Cc2ccccc2)C(C)C)cc1 [ispinesib]
In short, it runs like this:
as §1

Compound in the next assay: CON(C)C(=O)N1N=C(c2cc(F)ccc2F)S[C@@]1(CCCN)c1ccccc1 [filanesib]
In short, it runs like this:
as §1

Compound in another assay: COc1cc(Nc2ncc3c(n2)-c2ccc(Cl)cc2C(c2c(F)cccc2OC)=NC3)ccc1C(=O)O [alisertib]
In outline:
as §1

Compound in assay [5]: COc1cccc2cc(-c3nc([C@H]4CC[C@H](C(=O)O)CC4)n4ncnc(N)c34)[nH]c12
In short, it runs like this: as §1

Compound in assay [6]: CS(=O)(=O)c1ccc(-c2cnc(N)c(C(=O)Nc3ccccc3)n2)cc1
In outline:
as §1

Compound in assay [7]: COC1=CC=C(C=C1)CN2C=CC3=C2C=C(C=C3)C(=O)NO
In short, it runs like this: as §1

Compound in the next assay: C[C@@H](Oc1cc(-c2cnn(C3CCNCC3)c2)cnc1N)c1c(Cl)ccc(F)c1Cl [crizotinib]
In short, it runs like this: as §1

Compound in the next assay: Cc1ccc(-n2nc(C(C)(C)C)cc2NC(=O)Nc2ccc(OCCN3CCOCC3)c3ccccc23)cc1 [doramapimod]
In outline:
as §1

On to LTBP1 isoform 4 (UniProt Q14766), for which the log2 fold change in the assay with zotarolimus was inactive: -0.339; with idasanutlin it was inactive: 0.223; in assay [1], inactive: 0.015; in the assay with gefitinib it was inactive: 0.178; with lapatinib, inactive: 0.212; with pictilisib it was inactive: 0.032. Also, the log2 fold change was inactive: -0.097 in [2]; inactive: -0.107 in [3]; inactive: -0.078 with duvelisib; inactive: 0.022 in the assay with gandotinib; inactive: -0.069 with tozasertib; inactive: -0.074 in assay [4]. Also, the log2 fold change with ispinesib was inactive: 0.03.
For MAP4 isoform 5 (UniProt P27816), the log2 fold change was inactive: -0.039 with filanesib; inactive: -0.025 in the assay with idasanutlin; inactive: 0.143 in the assay with alisertib; inactive: -0.033 in assay [1]; inactive: -0.005 with gefitinib; inactive: -0.045 in [5]. Besides, the log2 fold change is inactive: 0.036 with lapatinib, inactive: 0.096 in assay [6], inactive: -0.159 in [2] and inactive: -0.042 in the assay with ispinesib.
Consider MAPK11 (UniProt Q15759), for which the log2 fold change in [7] was inactive: -0.126; with pictilisib, inactive: 0.068; in the assay with crizotinib it was inactive: -0.115; with gandotinib, inactive: -0.083; with ispinesib, inactive: -0.334.
Regarding LRRC8B (UniProt Q6P9F7), the log2 fold change in the assay with filanesib was inactive: 0.093; with alisertib, inactive: -0.05; in [1] it was inactive: -0.011; in the assay with gefitinib, inactive: -0.086; in assay [5], inactive: -0.329; with lapatinib, inactive: 0.187. Moreover, the log2 fold change was inactive: -0.03 in assay [6]; inactive: -0.028 in assay [2]; inactive: -0.091 with duvelisib; inactive: 0.177 in assay [4]; inactive: 0.047 with ispinesib.
For MAFG (UniProt O15525), the log2 fold change in the assay with zotarolimus is inactive: -0.101; with idasanutlin, inactive: 0.165; in the assay with pictilisib, inactive: -0.142; in [2] it was inactive: -0.248; in assay [3], inactive: -0.011; with gandotinib it was inactive: 0.055. Besides, the log2 fold change with ispinesib is inactive: -0.079.
In the case of LSM10 (UniProt Q969L4), the log2 fold change in assay [7] is inactive: 0.087; in assay [1] it was inactive: 0.06; in the assay with gefitinib it was inactive: -0.019; in the assay with lapatinib, inactive: 0.338; with crizotinib it was inactive: -0.061; with duvelisib, inactive: 0.113. Also, the log2 fold change in the assay with tozasertib was inactive: -0.048; in assay [4] it was inactive: -0.013; with doramapimod it was inactive: 0.077.
For LSG1 (UniProt Q9H089), the log2 fold change in assay [7] is inactive: -0.05; with zotarolimus, inactive: -0.004; with idasanutlin it was inactive: 0.161; with alisertib, inactive: -0.116; in assay [1], inactive: 0.071; in [5], inactive: -0.181. Moreover, the log2 fold change is inactive: 0.211 in the assay with lapatinib; inactive: -0.084 in the assay with crizotinib; inactive: -0.165 in assay [2]; inactive: 0.447 in assay [3]; inactive: -0.068 with duvelisib; inactive: -0.016 in the assay with tozasertib. Moreover, the figures for the log2 fold change (in assay [4]; in the assay with doramapimod; with ispinesib) were inactive: 0.144, inactive: 0.159 and inactive: 0.006, respectively.
LRRCC1 (UniProt Q9C099): the results for the log2 fold change (with idasanutlin; in assay [4]; in the assay with ispinesib) were inactive: -0.069, inactive: 0.013 and inactive: -0.301, respectively.
MANSC1 (UniProt Q9H8J5): the log2 fold change with zotarolimus was inactive: 0.015; with idasanutlin it was inactive: -0.006; with gefitinib, inactive: -0.062; in assay [3], inactive: -0.034; in the assay with tozasertib, inactive: -0.007.
Turning to LYST (UniProt Q99698), the log2 fold change in the assay with alisertib is inactive: -0.261; with gefitinib, inactive: -0.051; in assay [5], inactive: 0.426; in the assay with pictilisib it was inactive: 0.37; in assay [2] it was inactive: 0.053; with duvelisib it was inactive: 0.082. Moreover, the results for the log2 fold change (in the assay with gandotinib; in assay [4]) were inactive: 0.039 and inactive: -0.19, respectively.
On to MAGEA1 (UniProt P43355), for which the log2 fold change in assay [7] was inactive: -0.08; with zotarolimus, inactive: -0.116; with alisertib it was inactive: -0.13; in assay [1] it was inactive: -0.093; with gefitinib it was inactive: -0.036; in assay [5], inactive: -0.23. In addition, the log2 fold change in the assay with lapatinib was inactive: 0.03; with pictilisib, inactive: 0.066; with crizotinib, inactive: -0.146; in [2], inactive: -0.165; in assay [3], inactive: -0.096; with gandotinib, inactive: -0.143. Further, the log2 fold change with doramapimod is inactive: 0.066; with ispinesib it was inactive: -0.264.
Turning to MAPK7 (UniProt Q13164), the log2 fold change in [7] is inactive: -0.066; with idasanutlin it was inactive: 0.003; in the assay with pictilisib it was inactive: 0.108; with crizotinib, active: 0.773; in assay [2], inactive: 0.03; in the assay with gandotinib, inactive: 0.304. Moreover, the log2 fold change with doramapimod is inactive: 0.057.
